{"source": "the supplement of paper PMC7580552", "note": "Where a name gives a salt, the structure may show the parent alone. This is one part of the list. Part of the spread comes from offsets between plates or batches.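 Biofilm, quantified by the absorbance of well-retained crystal violet, is assayed using the K-12 laboratory model grown unshaken in 96-well plates. Candidate specific biofilm inhibitors were drugs that sharply lowered staining yet reduced free-floating growth by less than 70%.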"}
{"tested_on": "Escherichia coli W3110", "test": "biofilm formation (crystal violet staining) relative to untreated control; higher = more biofilm", "conditions": "10 µM; 20-24 h; 30 °C; TB", "units": {"biofilm formation": "%"}}
{"smiles": "CNNCc1ccc(C(=O)NC(C)C)cc1", "note": "[Procarbazine hydrochloride]", "biofilm formation": 98}
{"smiles": "CCn1cc(C(=O)O)c(=O)c2cc(F)c(N3CCNC(C)C3)c(F)c21", "note": "(stereo unspecified) [Lomefloxacin hydrochloride]", "biofilm formation": 16}
{"smiles": "CS(=O)(=O)Nc1ccc([N+](=O)[O-])cc1Oc1ccccc1", "note": "[Nimesulide]", "biofilm formation": 71}
{"smiles": "COc1cc(C)nc(-n2nc(C)cc2OC)n1", "note": "[Epirizole]", "biofilm formation": 68}
{"smiles": "CNC(=C[N+](=O)[O-])NCCSCc1csc(CN(C)C)n1", "note": "[Nizatidine]", "biofilm formation": 64}
{"smiles": "CC(C)CN(C[C@@H](O)[C@H](Cc1ccccc1)NC(=O)O[C@H]1CCOC1)S(=O)(=O)c1ccc(N)cc1", "note": "[Amprenavir]", "biofilm formation": 95}
{"smiles": "C[C@]12C=CC(=O)C=C1CC[C@@H]1[C@@H]2C(=O)C[C@@]2(C)[C@H]1CC[C@]2(O)C(=O)CO", "note": "[Prednisone]", "biofilm formation": 94}
{"smiles": "C[C@@H]1CN(c2c(F)c(N)c3c(=O)c(C(=O)O)cn(C4CC4)c3c2F)C[C@H](C)N1", "note": "[Sparfloxacin]", "biofilm formation": 9}
{"smiles": "CCn1cc(C(=O)O)c(=O)c2cc(F)c(N3CCN(C)CC3)cc21", "note": "[Pefloxacine]", "biofilm formation": 2}
{"smiles": "CCC(=O)[C@@]1(C)[C@H](C)C[C@H]2[C@@H]3CCC4=CC(=O)C=C[C@]4(C)[C@H]3[C@@H](O)C[C@@]21C", "note": "[Rimexolone]", "biofilm formation": 107}
{"smiles": "CC(=O)Nc1c(I)c(NC(C)=O)c(I)c(C(=O)O)c1I", "note": "[Diatrizoic acid dihydrate]", "biofilm formation": 59}
{"smiles": "CCc1cc(C(N)=S)ccn1", "note": "[Ethionamide]", "biofilm formation": 63}
{"smiles": "CN(N=O)C(=O)N[C@@H](C=O)[C@@H](O)[C@H](O)[C@H](O)CO", "note": "[Streptozotocin]", "biofilm formation": 71}
{"smiles": "CN1CCN(C(c2ccccc2)c2ccc(Cl)cc2)CC1", "note": "(stereo unspecified) [Chlorcyclizine hydrochloride]", "biofilm formation": 71}
{"smiles": "O=C(N/N=C/c1ccc([N+](=O)[O-])o1)c1ccc(O)cc1", "note": "[Nifuroxazide]", "biofilm formation": 90}
{"smiles": "Cc1ccc(/C(=C\\CN2CCCC2)c2ccccn2)cc1", "note": "[Triprolidine hydrochloride]", "biofilm formation": 65}
{"smiles": "CC(C)(O/N=C(\\C(=O)N[C@@H]1C(=O)N2C(C(=O)[O-])=C(C[n+]3ccccc3)CS[C@H]12)c1csc(N)n1)C(=O)O", "note": "[Ceftazidime pentahydrate]", "biofilm formation": 1}
{"smiles": "Cc1c(Cl)cccc1Nc1ncccc1C(=O)O", "note": "[Clonixin Lysinate]", "biofilm formation": 76}
{"smiles": "CNCCC=C1c2ccccc2CCc2ccccc21", "note": "[Nortriptyline hydrochloride]", "biofilm formation": 47}
{"smiles": "C[C@H]1[C@H](NC(=O)/C(=N\\OC(C)(C)C(=O)O)c2csc(N)n2)C(=O)N1S(=O)(=O)O", "note": "[Aztreonam]", "biofilm formation": 9}
{"smiles": "CCc1c2c(nc3ccc(OC(=O)N4CCC(N5CCCCC5)CC4)cc13)-c1cc3c(c(=O)n1C2)COC(=O)[C@]3(O)CC", "note": "[Irinotecan hydrochloride trihydrate]", "biofilm formation": 52}
{"smiles": "COC(=O)[C@H]1[C@H]2C[C@@H]3c4[nH]c5cc(OC)ccc5c4CCN3C[C@H]2C[C@@H](OC(=O)c2cc(OC)c(OC)c(OC)c2)[C@@H]1OC", "note": "[Reserpine]", "biofilm formation": 77}
{"smiles": "CNC(=C[N+](=O)[O-])NCCSCc1ccc(CN(C)C)o1", "note": "[Ranitidine hydrochloride]", "biofilm formation": 81}
{"smiles": "CC(C)C[C@H](NC(=O)[C@@H](O)[C@H](N)Cc1ccccc1)C(=O)O", "note": "[Ubenimex]", "biofilm formation": 54}
{"smiles": "CCOC(=O)Nc1ccc2c(c1)N(C(=O)CCN1CCOCC1)c1ccccc1S2", "note": "[Moricizine hydrochloride]", "biofilm formation": 93}
{"smiles": "C#C[C@]1(O)CC[C@H]2[C@@H]3CCc4cc(OC)ccc4[C@H]3CC[C@@]21C", "note": "[Ethynylestradiol 3-methyl ether]", "biofilm formation": 60}
{"smiles": "CC(C)NCC(O)c1ccc(NS(C)(=O)=O)cc1", "note": "(stereo unspecified) [Sotalol hydrochloride]", "biofilm formation": 96}
{"smiles": "CC(=O)N1CCN(c2ccc(OCC3COC(Cn4ccnc4)(c4ccc(Cl)cc4Cl)O3)cc2)CC1", "note": "(stereo unspecified) [Ketoconazole]", "biofilm formation": 93}
{"smiles": "CN(CCOc1ccc(NS(C)(=O)=O)cc1)CCc1ccc(NS(C)(=O)=O)cc1", "note": "[Dofetilide]", "biofilm formation": 78}
{"smiles": "CCN(CC)CCCC(C)Nc1c2ccc(Cl)cc2nc2ccc(OC)cc12", "note": "(stereo unspecified) [Quinacrine dihydrochloride hydrate]", "biofilm formation": 90}
{"smiles": "CCCCCCCCCCCCCCCC[N+](C)(C)CCN(Cc1ccc(OC)cc1)c1ncccn1", "note": "[Thonzonium bromide]", "biofilm formation": 11}
{"smiles": "CO[C@@]1(NC(=O)C(C(=O)O)c2ccc(O)cc2)C(=O)N2C(C(=O)O)=C(CSc3nnnn3C)CO[C@@H]21", "note": "(stereo partly specified) [Moxalactam disodium salt]", "biofilm formation": 11}
{"smiles": "C#C[C@]1(O)CC[C@H]2[C@@H]3CCC4=CC(=O)CC[C@@H]4[C@H]3CC[C@@]21C", "note": "[Norethindrone]", "biofilm formation": 60}
{"smiles": "C#C[C@]1(OC(C)=O)CC[C@H]2[C@@H]3CCC4=C[C@@H](OC(C)=O)CC[C@@H]4[C@H]3CC[C@@]21C", "note": "[Ethynodiol diacetate]", "biofilm formation": 60}
{"smiles": "Nc1ccc(S(=O)(=O)Nc2ncccn2)cc1", "note": "[Sulfadiazine]", "biofilm formation": 34}
{"smiles": "CCN(CC)CCOC(=O)C1(c2ccc([N+](=O)[O-])cc2)CCCC1", "note": "[Nitrocaramiphen hydrochloride]", "biofilm formation": 82}
{"smiles": "Clc1ccccc1CN1CCc2sccc2C1", "note": "[Ticlopidine hydrochloride]", "biofilm formation": 75}
{"smiles": "Nc1ccc(O)c(C(=O)O)c1", "note": "[Mesalamine]", "biofilm formation": 69}
{"smiles": "Cc1cc(NC(=O)C2=C(O)c3ccccc3S(=O)(=O)N2C)no1", "note": "[Isoxicam]", "biofilm formation": 76}
{"smiles": "Cc1cc(C(C)(C)CC(C)(C)C)ccc1OCCOCC[N+](C)(C)Cc1ccccc1", "note": "[Methyl benzethonium chloride]", "biofilm formation": 30}
{"smiles": "CO[C@@]1(NC(=O)C2SC(=C(C(N)=O)C(=O)O)S2)C(=O)N2C(C(=O)O)=C(CSc3nnnn3C)CS[C@@H]21", "note": "(stereo partly specified) [Cefotetan]", "biofilm formation": 0}
{"smiles": "CN(C)CCCN1c2ccccc2CCc2ccc(Cl)cc21", "note": "[Clomipramine hydrochloride]", "biofilm formation": 61}
{"smiles": "COC(=O)C1=C(C)NC(C)=C(C(=O)OC)C1c1ccccc1[N+](=O)[O-]", "note": "[Nifedipine]", "biofilm formation": 69}
{"smiles": "C[C@@H](c1ncncc1F)[C@](O)(Cn1cncn1)c1ccc(F)cc1F", "note": "[Voriconazole]", "biofilm formation": 72}
{"smiles": "O=C(O)Cc1ccccc1Nc1c(Cl)cccc1Cl", "note": "[Diclofenac sodium]", "biofilm formation": 78}
{"smiles": "CN1CCN(CCCN2c3ccccc3Sc3ccc(S(=O)(=O)N(C)C)cc32)CC1", "note": "[Thioproperazine dimesylate]", "biofilm formation": 68}
{"smiles": "CC(=O)Oc1cc(C(F)(F)F)ccc1C(=O)O", "note": "[Triflusal]", "biofilm formation": 70}
{"smiles": "C[C@]12C=CC(=O)C=C1CC[C@@H]1[C@@H]2[C@@H](O)C[C@@]2(C)[C@H]1CC[C@]2(O)C(=O)CO", "note": "[Prednisolone]", "biofilm formation": 50}
{"smiles": "O=c1[nH]cc(F)c(=O)[nH]1", "note": "[5-fluorouracil]", "biofilm formation": 75}
{"smiles": "CS(=O)(=O)c1ccc([C@@H](O)[C@@H](CO)NC(=O)C(Cl)Cl)cc1", "note": "[Thiamphenicol]", "biofilm formation": 70}
{"smiles": "CC(C)Cc1ccc([C@H](C)C(=O)O)cc1", "note": "[S-(+)-ibuprofen]", "biofilm formation": 50}
{"smiles": "NS(=O)(=O)c1cc2c(cc1Cl)N=C(CSCc1ccccc1)NS2(=O)=O", "note": "[Benzthiazide]", "biofilm formation": 60}
{"smiles": "O=C1C(CC[S+]([O-])c2ccccc2)C(=O)N(c2ccccc2)N1c1ccccc1", "note": "(stereo unspecified) [Sulfinpyrazone]", "biofilm formation": 69}
{"smiles": "CC(=O)O[C@]1(C(C)=O)CC[C@H]2[C@@H]3C=C(C)C4=CC(=O)CC[C@@H]4[C@H]3CC[C@@]21C", "note": "[Nomegestrol acetate]", "biofilm formation": 81}
{"smiles": "C[C@H](CCC(=O)O)[C@H]1CC[C@H]2[C@@H]3CC[C@@H]4C[C@H](O)CC[C@]4(C)[C@H]3CC[C@]12C", "note": "[Lithocholic acid]", "biofilm formation": 77}
{"smiles": "CC(=O)SCC(Cc1ccccc1)C(=O)NCC(=O)OCc1ccccc1", "note": "(stereo unspecified) [Racecadotril]", "biofilm formation": 70}
{"smiles": "COC(=O)C1=C(C)NC(C)=C(C(=O)OC(C)C)C1c1cccc2nonc12", "note": "(stereo unspecified) [Isradipine]", "biofilm formation": 83}
{"smiles": "O=C(O)CCCC[C@@H]1SC[C@@H]2NC(=O)N[C@@H]21", "note": "[Biotin]", "biofilm formation": 82}
{"smiles": "COCC(=O)Nc1c(I)c(C(=O)NCC(O)CO)c(I)c(C(=O)N(C)CC(O)CO)c1I", "note": "(stereo unspecified) [Iopromide]", "biofilm formation": 82}
{"smiles": "CC1COc2c(N3CCN(C)CC3)c(F)cc3c(=O)c(C(=O)O)cn1c23", "note": "(stereo unspecified) [Ofloxacin]", "biofilm formation": 13}
{"smiles": "Cn1cnc([N+](=O)[O-])c1Sc1ncnc2[nH]cnc12", "note": "[Azathioprine]", "biofilm formation": 52}
{"smiles": "CC(C)C(=O)Nc1ccc([N+](=O)[O-])c(C(F)(F)F)c1", "note": "[Flutamide]", "biofilm formation": 92}
{"smiles": "CC(C)CN(C[C@@H](O)[C@H](Cc1ccccc1)NC(=O)O[C@H]1CO[C@H]2OCC[C@H]21)S(=O)(=O)c1ccc(N)cc1", "note": "[Darunavir]", "biofilm formation": 85}
{"smiles": "O=C1c2cccc3c2[C@H](CCC3)CN1[C@@H]1CN2CCC1CC2", "note": "[Palonosetron hydrochloride]", "biofilm formation": 61}
{"smiles": "NCC[C@H](O)C(=O)N[C@@H]1C[C@H](N)[C@@H](O[C@H]2O[C@H](CN)[C@@H](O)[C@H](O)[C@H]2O)[C@H](O)[C@H]1O[C@H]1O[C@H](CO)[C@@H](O)[C@H](N)[C@H]1O", "note": "[Amikacin hydrate]", "biofilm formation": 17}
{"smiles": "O=c1[nH]cnc2c1ncn2[C@H]1CC[C@@H](CO)O1", "note": "[Didanosine]", "biofilm formation": 92}
{"smiles": "CN(C/C=C/C#CC(C)(C)C)Cc1cccc2ccccc12", "note": "[Terbinafine]", "biofilm formation": 68}
{"smiles": "Fc1ccc([C@@H]2CCNC[C@H]2COc2ccc3c(c2)OCO3)cc1", "note": "[Paroxetine Hydrochloride]", "biofilm formation": 93}
{"smiles": "Nc1nc(O)c2ncn(CCC(CO)CO)c2n1", "note": "[Penciclovir]", "biofilm formation": 87}
{"smiles": "C[C@H]1COc2c(N3CCN(C)CC3)c(F)cc3c(=O)c(C(=O)O)cn1c23", "note": "[Levofloxacin]", "biofilm formation": 15}
{"smiles": "CN(C)CCCN1c2ccccc2CCc2ccccc21", "note": "[Imipramine hydrochloride]", "biofilm formation": 96}
